Measurements: US11219607B2, “Methods for suppressing cancer-related cachexia” (Ohio State Innovation Foundation, priority 2013, dated 2022)

Test system: C-26 tumor-bearing mice
Test: C-26 colon adenocarcinoma model of cancer cachexia (body, muscle and tissue weights, tumor growth, food intake)
Format: in vivo, CD2F1 mice
Description: In one aspect, tumors were established by subcutaneous injection of C-26 cells (0.5×10^6 cells in 0.1 ml) into the right flank of male CD2F1 mice (approximately 6 weeks of age; Harlan Laboratories, Indianapolis, Ind.)(11). Tumor-bearing mice, as well as tumor-free mice serving as non-cachectic controls, were randomized into groups that were treated with either AR-42 (50 mg/kg, p.o. by gavage, every other day; Arno Therapeutics, Inc., Flemington, N.J.) or vehicle (0.5% methylcellulose (w/v) and 0.1% Tween-80 (v/v) in sterile water) starting 6 days after cell injection. […]
In another aspect, subcutaneous tumors were established in male C57BL/6 mice (approximately 6 weeks of age; Harlan) by injection of 0.5×10^6 LLC cells into the right flank. […] In both models, body weights and food consumption were monitored daily and tumor size was measured no less than every two days. Mice were fasted for 2 hours prior to sacrifice, at which time, hind limb muscles, heart, spleen, epididymal fat, and blood were collected and the weights of the solid tissues were measured. […]
CD2F1 and C57BL/6 mice were group-housed under conditions of constant photoperiod (12-hour light/12-hour dark), temperature and humidity with ad libitum access to water and standard diet. […] Tumor volumes were calculated from caliper measurements using a standard formula (length×width^2×π/6).

CC(C)[C@H](C(=O)Nc1ccc(C(=O)NO)cc1)c1ccccc1 [AR-42, (S)—N-hydroxy-4-(3-methyl-2-phenylbutanamido)benzamide]
average daily food consumption versus vehicle-treated group (C-26 tumor-bearing mice, 15-day study): comparable
reduction of adipose tissue mass in tumor-free mice (tumor-free mice, 50 mg/kg p.o. every other day): approximately 50%
